# According to patent publication US6458923B1 (Scios Inc., priority 1991, dated 2002):
# Assay: Boc solid-phase peptide synthesis; Boc-Arg(Tos)-PAM resin
# Conditions: whole synthesis, scale 0.25 g resin
substance,measurement,value
D-Arg-Arg-Pro-Hyp-Gly-Thi-Ser-(D-Ric)-Tic-Arg,crude mass,176 mg
